Drawing on article PMC6547613, this text covers binding for 5 molecules.

Chains of the proteins cited; added tags and fusions are not shown. Lines headed by an entry give the natural chain unless they say otherwise; changes in a name come on top. A line that says so, or that is headed by a name, gives the form on record, which may keep a tag or linker.
myc-tagged PMLIV (doxycycline-inducible, MDA-MB-231 PMLIV OE cells) (P29590-5, form named): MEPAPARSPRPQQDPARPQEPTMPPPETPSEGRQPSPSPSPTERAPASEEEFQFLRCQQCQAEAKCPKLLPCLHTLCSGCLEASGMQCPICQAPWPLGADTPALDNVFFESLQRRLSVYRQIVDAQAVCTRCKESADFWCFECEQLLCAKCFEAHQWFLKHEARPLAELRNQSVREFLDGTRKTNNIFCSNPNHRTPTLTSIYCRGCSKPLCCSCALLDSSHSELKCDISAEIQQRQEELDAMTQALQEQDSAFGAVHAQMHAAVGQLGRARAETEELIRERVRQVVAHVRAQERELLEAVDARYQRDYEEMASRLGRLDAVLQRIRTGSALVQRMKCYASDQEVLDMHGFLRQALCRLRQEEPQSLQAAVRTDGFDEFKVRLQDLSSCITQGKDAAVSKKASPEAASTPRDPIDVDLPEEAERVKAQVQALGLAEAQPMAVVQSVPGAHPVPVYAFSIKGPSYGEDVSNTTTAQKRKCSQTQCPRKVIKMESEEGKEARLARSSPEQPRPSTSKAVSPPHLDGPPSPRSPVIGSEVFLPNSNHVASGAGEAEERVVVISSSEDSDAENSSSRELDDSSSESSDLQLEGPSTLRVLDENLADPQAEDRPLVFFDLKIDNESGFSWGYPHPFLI
UniProt O43524: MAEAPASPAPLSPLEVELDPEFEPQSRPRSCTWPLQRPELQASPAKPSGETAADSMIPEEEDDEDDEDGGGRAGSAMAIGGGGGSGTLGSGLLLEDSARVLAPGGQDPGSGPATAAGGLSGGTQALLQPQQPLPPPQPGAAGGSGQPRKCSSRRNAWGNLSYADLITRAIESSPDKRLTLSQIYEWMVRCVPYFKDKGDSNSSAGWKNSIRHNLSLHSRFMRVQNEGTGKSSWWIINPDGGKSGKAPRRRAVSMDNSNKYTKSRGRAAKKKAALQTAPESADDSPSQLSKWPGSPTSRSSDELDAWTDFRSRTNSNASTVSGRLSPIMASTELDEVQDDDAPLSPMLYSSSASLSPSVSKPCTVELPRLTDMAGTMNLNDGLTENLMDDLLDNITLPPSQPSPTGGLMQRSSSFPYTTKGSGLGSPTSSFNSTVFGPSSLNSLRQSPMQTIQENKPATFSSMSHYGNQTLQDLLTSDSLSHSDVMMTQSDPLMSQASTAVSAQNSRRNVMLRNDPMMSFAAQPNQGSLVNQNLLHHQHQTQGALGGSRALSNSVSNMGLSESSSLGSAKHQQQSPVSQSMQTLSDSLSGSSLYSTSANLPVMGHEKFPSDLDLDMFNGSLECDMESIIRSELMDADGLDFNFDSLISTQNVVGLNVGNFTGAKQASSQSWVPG

The target in one experiment is T1, GFP-FOXM1 (UniProt Q08050).
T1 sequence: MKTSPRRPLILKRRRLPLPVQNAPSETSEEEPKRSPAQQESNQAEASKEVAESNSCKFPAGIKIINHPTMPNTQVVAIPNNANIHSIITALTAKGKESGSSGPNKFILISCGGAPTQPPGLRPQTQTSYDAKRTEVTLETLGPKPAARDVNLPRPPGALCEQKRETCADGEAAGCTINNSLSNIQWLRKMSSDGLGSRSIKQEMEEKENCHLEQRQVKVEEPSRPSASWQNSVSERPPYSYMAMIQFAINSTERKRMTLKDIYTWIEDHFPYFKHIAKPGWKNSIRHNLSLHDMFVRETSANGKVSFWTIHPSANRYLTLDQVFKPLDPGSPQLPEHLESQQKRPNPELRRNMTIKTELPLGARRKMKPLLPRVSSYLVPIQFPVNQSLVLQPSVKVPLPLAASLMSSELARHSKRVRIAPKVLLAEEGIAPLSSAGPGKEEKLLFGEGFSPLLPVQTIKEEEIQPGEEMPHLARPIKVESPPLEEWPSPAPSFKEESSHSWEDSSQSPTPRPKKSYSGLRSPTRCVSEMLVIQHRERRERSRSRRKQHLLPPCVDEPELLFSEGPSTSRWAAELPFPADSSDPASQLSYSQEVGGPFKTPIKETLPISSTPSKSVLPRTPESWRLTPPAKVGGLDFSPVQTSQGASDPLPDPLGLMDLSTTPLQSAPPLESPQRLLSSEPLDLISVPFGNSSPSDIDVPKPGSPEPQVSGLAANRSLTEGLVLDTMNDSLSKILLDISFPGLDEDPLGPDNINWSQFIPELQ
The experiment in a line: co-IP; lysates (RIPA buffer) of transiently cotransfected HEK293T cells; 200 ug extract with GFP, FOXM1 or PML antibody overnight at 4 °C, protein G beads 3 h, washes in NETN buffer (250 mM NaCl, 0.5% NP-40); immunoblot. A general note: In western blotting, separated proteins are transferred to a membrane and probed.

The target of experiment [1] is mRED-PMLIV (human) (UniProt P29590). The description is as above.
Experiment [2] deals with myc-tagged PMLIV (doxycycline-inducible, MDA-MB-231 PMLIV OE cells) (human) (UniProt P29590). The experiment in a line: co-IP; lysates (RIPA buffer) of the MDA-MB-231 PMLIV OE cell line (doxycycline-induced; for FOXO3 also before induction); primary antibody overnight at 4 °C, protein G beads, washes in NETN buffer (250 mM NaCl); immunoblot.
Experiment [3] addresses mRED-PMLIV (human) (UniProt P29590). The experiment in a line: co-IP; lysates (RIPA buffer) of transiently cotransfected HEK293T cells; 200 ug extract with GFP, FOXM1 or PML antibody overnight at 4 °C, protein G beads 3 h, washes in NETN buffer (250 mM NaCl, 0.5% NP-40); immunoblot. The source holds these as a separate data set.
In experiment [4] the target is PMLIII (mRED fusion) (human) (UniProt P29590). Described as above.
The target of experiment [5] is myc-tagged PMLIV (doxycycline-inducible, MDA-MB-231 PMLIV OE cells) (human) (UniProt P29590). The experiment in a line: co-IP; lysates (RIPA buffer) of the MDA-MB-231 PMLIV OE cell line (doxycycline-induced; for FOXO3 also before induction); primary antibody overnight at 4 °C, protein G beads, washes in NETN buffer (250 mM NaCl); immunoblot. This is another data set of the same source.

Like-named read-outs stand apart in the source and are kept apart here. Results are given in words; binding and its absence hold for the method and conditions named. In cells and extracts the contact can be indirect. Some binding calls cover weakened binding; strength is not graded here. For part of these data: Tags and fused reporters may be left off the sequences shown.

Consider “mRED-PMLIV (from UniProt P29590-5 1-633)”, for which the binding result with GFP-FOXM1 was “binds”.

As to “FOXO3 (dsRED monomer fusion) (from UniProt O43524 1-673)”, the binding result with mRED-PMLIV (human) [1] is “binds”.

As to “endogenous FOXO3 (MDA-MB-231) (from UniProt O43524 1-673)”, the binding result in experiment [2] is listed as “binds”.

B1: GFP-FOXM1 (protein, UniProt Q08050-1 1-763)
chain: T1 sequence
Take B1: the figures for the binding entry (with mRED-PMLIV (human) [3]; in experiment [4]) were “binds” and “binds weakly”, respectively.

B2: endogenous FOXM1 (MDA-MB-231) (protein, UniProt Q08050 1-763)
chain: T1 sequence
Consider B2, for which, in experiment [5], the binding result was “binds”.
